Here are results for two substances from paper doi:10.1101/2023.01.14.524051.

Protein sequences, listed by entry. Tags and fused reporters are not part of them.
UniProt P21730: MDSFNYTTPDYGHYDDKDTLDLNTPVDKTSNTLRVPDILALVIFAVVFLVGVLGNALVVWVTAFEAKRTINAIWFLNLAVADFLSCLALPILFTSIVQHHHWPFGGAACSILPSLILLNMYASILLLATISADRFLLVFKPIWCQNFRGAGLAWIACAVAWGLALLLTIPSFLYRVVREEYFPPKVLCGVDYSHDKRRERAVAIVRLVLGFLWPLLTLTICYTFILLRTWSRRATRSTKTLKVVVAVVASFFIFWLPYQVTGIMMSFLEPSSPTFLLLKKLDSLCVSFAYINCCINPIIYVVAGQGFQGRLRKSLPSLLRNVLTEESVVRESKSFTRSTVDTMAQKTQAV
UniProt P32121: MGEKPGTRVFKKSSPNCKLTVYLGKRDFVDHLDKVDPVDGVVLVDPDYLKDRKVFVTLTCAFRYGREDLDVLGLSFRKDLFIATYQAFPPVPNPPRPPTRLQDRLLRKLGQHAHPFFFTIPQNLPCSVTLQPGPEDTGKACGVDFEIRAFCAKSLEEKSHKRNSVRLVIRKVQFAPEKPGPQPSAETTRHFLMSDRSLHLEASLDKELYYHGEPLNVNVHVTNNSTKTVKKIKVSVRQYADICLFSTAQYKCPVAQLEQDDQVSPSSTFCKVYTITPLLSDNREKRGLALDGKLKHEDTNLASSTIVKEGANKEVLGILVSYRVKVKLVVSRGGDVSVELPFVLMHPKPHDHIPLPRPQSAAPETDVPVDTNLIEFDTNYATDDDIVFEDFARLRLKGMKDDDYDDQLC
UniProt P49407: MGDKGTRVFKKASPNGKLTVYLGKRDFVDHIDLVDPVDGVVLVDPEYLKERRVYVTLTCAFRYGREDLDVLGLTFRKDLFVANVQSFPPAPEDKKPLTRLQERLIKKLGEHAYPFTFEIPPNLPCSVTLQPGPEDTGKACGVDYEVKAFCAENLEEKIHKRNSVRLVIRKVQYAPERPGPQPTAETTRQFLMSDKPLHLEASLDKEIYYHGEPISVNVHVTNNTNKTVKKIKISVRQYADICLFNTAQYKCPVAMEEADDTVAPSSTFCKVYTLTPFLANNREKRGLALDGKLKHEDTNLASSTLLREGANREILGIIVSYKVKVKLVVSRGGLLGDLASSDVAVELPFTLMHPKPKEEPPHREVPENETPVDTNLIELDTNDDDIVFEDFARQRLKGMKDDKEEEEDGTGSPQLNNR

Assay [1] concerns the target C-terminally SmBiT-tagged hC5aR1 (human) (UniProt P21730). The assay can be described thus: split reporter.
For assay [2], the target named is T1, C-terminally SmBiT-tagged mC5aR1 (mouse) (UniProt P30993).
T1 sequence: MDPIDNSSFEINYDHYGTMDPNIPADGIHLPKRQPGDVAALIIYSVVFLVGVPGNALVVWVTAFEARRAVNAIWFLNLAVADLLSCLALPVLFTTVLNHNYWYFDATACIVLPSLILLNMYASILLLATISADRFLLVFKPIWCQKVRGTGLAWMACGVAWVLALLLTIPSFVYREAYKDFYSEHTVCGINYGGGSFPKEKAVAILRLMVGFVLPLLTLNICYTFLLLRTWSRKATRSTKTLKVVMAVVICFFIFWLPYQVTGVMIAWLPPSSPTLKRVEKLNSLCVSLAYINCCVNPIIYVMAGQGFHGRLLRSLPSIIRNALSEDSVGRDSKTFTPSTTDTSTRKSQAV
Briefly: split reporter.

No constants are given. Whether binding was seen depends on the method and setting. In cells and extracts the contact can be indirect. Some results given as binding are weak or reduced against the parent protein; the word gives no strength. For some of these results: Where a sequence is shown, tags or fusion partners need not be part of it.

As for “βarr2 containing an LgBiT tag on its N-terminal end (from UniProt P32121 1-409)”, the binding result in assay [1] and in assay [2] was “binds” throughout.

Regarding “βarr1 containing an LgBiT tag on its N-terminal end (from UniProt P49407 1-418)”, the binding entry in assay [1] and in assay [2] was “binds” in each case.
